According to paper doi:10.1101/2021.12.21.473719:
Where two headings read alike, the source gives them in different places. Results are given in words; binding and its absence hold for the method and conditions named. In cells and extracts the contact can be indirect. Some results given as binding are weak or reduced against the parent protein; the word gives no strength. For some assays here: Where a sequence is shown, tags or fusion partners need not be part of it.

What was measured:
[1] = target: POPDC1-Myc (Popeye domain-containing protein 1, Myc-tagged) (mouse) (UniProt Q9ES83); test: co-IP
POPDC2-Myc (mouse) = target: T1, POPDC2-Myc (mouse) (UniProt Q9ES82); test: co-IP
T1 sequence: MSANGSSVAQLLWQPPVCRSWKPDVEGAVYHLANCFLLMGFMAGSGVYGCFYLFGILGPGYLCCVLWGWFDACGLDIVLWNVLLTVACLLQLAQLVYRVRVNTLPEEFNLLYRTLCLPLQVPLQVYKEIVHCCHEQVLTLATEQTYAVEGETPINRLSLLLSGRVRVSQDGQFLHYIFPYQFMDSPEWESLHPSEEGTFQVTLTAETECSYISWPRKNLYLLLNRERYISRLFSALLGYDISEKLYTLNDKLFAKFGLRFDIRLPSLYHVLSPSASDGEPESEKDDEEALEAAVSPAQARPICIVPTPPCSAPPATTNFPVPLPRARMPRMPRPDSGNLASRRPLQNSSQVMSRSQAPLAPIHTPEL

[2] = target: POPDC1-Myc (Popeye domain-containing protein 1, Myc-tagged) (mouse) (UniProt Q9ES83); test: co-IP; remark: listed apart in the source
[3] = target: POPDC1-Myc (Popeye domain-containing protein 1, Myc-tagged) (mouse) (UniProt Q9ES83); test: co-IP; remark: listed apart in the source
[4] = target: T2, POPDC1-VN / POPDC1-VC (mouse POPDC1 with a half of Venus for BiFC) (mouse) (UniProt Q9ES83); test: split reporter
T2 sequence: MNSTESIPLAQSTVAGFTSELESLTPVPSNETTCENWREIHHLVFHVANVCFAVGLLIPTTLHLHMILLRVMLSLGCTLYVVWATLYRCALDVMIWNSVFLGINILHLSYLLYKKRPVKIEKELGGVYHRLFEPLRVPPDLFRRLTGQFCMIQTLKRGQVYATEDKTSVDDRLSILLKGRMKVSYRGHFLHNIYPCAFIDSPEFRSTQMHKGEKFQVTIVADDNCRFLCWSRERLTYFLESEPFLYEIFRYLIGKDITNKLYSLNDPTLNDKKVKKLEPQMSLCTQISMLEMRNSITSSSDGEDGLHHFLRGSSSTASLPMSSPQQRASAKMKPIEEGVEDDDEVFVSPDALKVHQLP

[5] = target: T2, POPDC1-VN / POPDC1-VC (mouse POPDC1 with a half of Venus for BiFC) (mouse); test: split reporter; remark: listed apart in the source
[6] = target: T3, POPDC3-VN / POPDC3-VC (mouse POPDC3 with a half of Venus for BiFC) (mouse) (UniProt Q9ES81); test: split reporter
T3 sequence: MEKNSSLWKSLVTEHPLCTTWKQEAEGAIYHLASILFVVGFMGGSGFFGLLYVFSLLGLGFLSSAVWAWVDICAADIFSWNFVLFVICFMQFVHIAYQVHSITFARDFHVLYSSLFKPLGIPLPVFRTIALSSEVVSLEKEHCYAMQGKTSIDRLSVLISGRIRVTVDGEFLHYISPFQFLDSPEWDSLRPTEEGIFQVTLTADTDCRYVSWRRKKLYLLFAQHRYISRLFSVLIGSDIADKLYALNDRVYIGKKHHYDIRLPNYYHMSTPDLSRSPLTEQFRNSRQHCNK

[7] = target: T4, POPDC2-VN / POPDC2-VC (mouse POPDC2 with a half of Venus for BiFC) (mouse) (UniProt Q9ES82); test: split reporter
T4 sequence: T1 sequence

Measured: binding

B1: Flag-tagged AC9 (adenylyl cyclase type 9) (enzyme, UniProt O60503 1-1353)
chain: MASPPHQQLLHHHSTEVSCDSSGDSNSVRVKINPKQLSSNSHPKHCKYSISSSCSSSGDSGGVPRRVGGGGRLRRQKKLPQLFERASSRWWDPKFDSVNLEEACLERCFPQTQRRFRYALFYIGFACLLWSIYFAVHMRSRLIVMVAPALCFLLVCVGFFLFTFTKLYARHYAWTSLALTLLVFALTLAAQFQVLTPVSGRGDSSNLTATARPTDTCLSQVGSFSMCIEVLFLLYTVMHLPLYLSLCLGVAYSVLFETFGYHFRDEACFPSPGAGALHWELLSRGLLHGCIHAIGVHLFVMSQVRSRSTFLKVGQSIMHGKDLEVEKALKERMIHSVMPRIIADDLMKQGDEESENSVKRHATSSPKNRKKKSSIQKAPIAFRPFKMQQIEEVSILFADIVGFTKMSANKSAHALVGLLNDLFGRFDRLCEETKCEKISTLGDCYYCVAGCPEPRADHAYCCIEMGLGMIKAIEQFCQEKKEMVNMRVGVHTGTVLCGILGMRRFKFDVWSNDVNLANLMEQLGVAGKVHISEATAKYLDDRYEMEDGKVIERLGQSVVADQLKGLKTYLISGQRAKESRCSCAEALLSGFEVIDGSQVSSGPRGQGTASSGNVSDLAQTVKTFDNLKTCPSCGITFAPKSEAGAEGGAPQNGCQDEHKNSTKASGGPNPKTQNGLLSPPQEEKLTNSQTSLCEILQEKGRWAGVSLDQSALLPLRFKNIREKTDAHFVDVIKEDSLMKDYFFKPPINQFSLNFLDQELERSYRTSYQEEVIKNSPVKTFASPTFSSLLDVFLSTTVFLTLSTTCFLKYEAATVPPPPAALAVFSAALLLEVLSLAVSIRMVFFLEDVMACTKRLLEWIAGWLPRHCIGAILVSLPALAVYSHVTSEYETNIHFPVFTGSAALIAVVHYCNFCQLSSWMRSSLATVVGAGPLLLLYVSLCPDSSVLTSPLDAVQNFSSERNPCNSSVPRDLRRPASLIGQEVVLVFFLLLLLVWFLNREFEVSYRLHYHGDVEADLHRTKIQSMRDQADWLLRNIIPYHVAEQLKVSQTYSKNHDSGGVIFASIVNFSEFYEENYEGGKECYRVLNELIGDFDELLSKPDYSSIEKIKTIGATYMAASGLNTAQAQDGSHPQEHLQILFEFAKEMMRVVDDFNNNMLWFNFKLRVGFNHGPLTAGVIGTTKLLYDIWGDTVNIASRMDTTGVECRIQVSEESYRVLSKMGYDFDYRGTVNVKGKGQMKTYLYPKCTDHRVIPQHQLSISPDIRVQVDGSIGRSPTDEIANLVPSVQYVDKTSLGSDSSTQAKDAHLSPKRPWKEPVKAEERGRFGKAIEKDDCDETGIEEANELTKLNVSKSV
binds: [1] | POPDC2-Myc (mouse) | [2] | [3]

B2: AC9-VN / AC9-VC (AC9 with a half of Venus for BiFC) (enzyme, UniProt O60503 1-1353)
chain: B1 chain
binds: [4] | [5] | [6] | [7]
